In the supplement of paper PMC7666118:
The other results are listed elsewhere or left out.

Amino acid sequences for entries named in this document (tags omitted). A change or cut given only in a name is not applied to a line headed by its entry.
UniProt Q9NWH9: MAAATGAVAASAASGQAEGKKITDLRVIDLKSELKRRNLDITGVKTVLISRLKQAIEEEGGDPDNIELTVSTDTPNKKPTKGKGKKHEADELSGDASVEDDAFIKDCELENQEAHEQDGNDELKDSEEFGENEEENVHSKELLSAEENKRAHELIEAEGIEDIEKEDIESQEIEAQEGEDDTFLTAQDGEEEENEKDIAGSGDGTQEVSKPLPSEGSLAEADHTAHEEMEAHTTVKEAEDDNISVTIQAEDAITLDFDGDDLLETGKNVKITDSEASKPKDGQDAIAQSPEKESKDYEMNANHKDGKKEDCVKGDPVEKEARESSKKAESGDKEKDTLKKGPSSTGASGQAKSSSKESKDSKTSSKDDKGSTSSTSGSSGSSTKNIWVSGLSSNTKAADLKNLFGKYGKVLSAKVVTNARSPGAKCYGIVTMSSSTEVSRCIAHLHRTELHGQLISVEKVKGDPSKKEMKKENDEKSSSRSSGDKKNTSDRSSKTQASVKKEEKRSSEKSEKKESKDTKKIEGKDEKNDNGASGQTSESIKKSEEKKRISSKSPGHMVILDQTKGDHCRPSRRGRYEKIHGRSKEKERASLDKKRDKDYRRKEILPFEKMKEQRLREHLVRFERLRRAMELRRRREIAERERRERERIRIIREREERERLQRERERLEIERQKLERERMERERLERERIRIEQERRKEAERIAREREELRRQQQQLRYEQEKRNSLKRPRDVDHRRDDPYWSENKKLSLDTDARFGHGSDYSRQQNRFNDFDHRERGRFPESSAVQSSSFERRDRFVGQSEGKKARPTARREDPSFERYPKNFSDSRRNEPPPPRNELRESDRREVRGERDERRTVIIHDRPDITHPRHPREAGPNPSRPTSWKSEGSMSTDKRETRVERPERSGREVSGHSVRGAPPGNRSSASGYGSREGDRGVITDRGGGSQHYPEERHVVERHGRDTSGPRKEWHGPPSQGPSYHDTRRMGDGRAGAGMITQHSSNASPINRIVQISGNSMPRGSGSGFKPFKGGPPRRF

Target: SLTM (UniProt Q9NWH9)
Assay: dose-dependent thermal stabilisation call (2D-TPP, DLPTP, 10% FDR) (binary (1 = stabilised)); higher = stabilised by the compound
Conditions: system: HL-60 intact cells; concentration range 0.04-10 µM
Procedure: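 2D thermal proteome profiling in intact HL-60 cells treated with BRD-3811 (0, 0.04, 0.29, 2, 10 uM) for 90 min at 37 C, then heated 3 min at one of 12 temperatures (42-63.9 C). Soluble protein was quantified by TMT10 MS. The value is the DLPTP call of the paper: dose-dependent thermal stabilisation over all temperatures at 10% FDR (F-test of a dose-response against a flat model); one experiment, one call per tested protein.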

SMILES	dose-dependent thermal stabilisation call
COc1ccc(Cn2ccc3cc(C)c(C(=O)NO)cc32)cc1	inactive: 0
